Measurements reported in PubChem BioAssay AID1508588 (Peter MacCallum Cancer Centre, 2020)

- Test: 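Which gene losses make BRAF-mutant melanoma cells more responsive to vemurafenib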 (primary screen)
- Cell system: human WM266.4 melanoma cells (BRAF V600 mutant)
- Reagents: siRNA pool against human genes, 40 nM
- Timing: 96 h from transfection to read-out
- Conditions: vemurafenib 300 nM (about IC25), added 48 h after transfection, for 48 h; comparison arm got DMSO vehicle only
- Measured: 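Cell gain (DAPI nuclei at end minus before drug, mean of two replicates) and medium lactate by absorbance per cell, both as ratio to non-targeting siRNA, also grouped into fold-change classes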
- Reading the numbers: cell gain with vemurafenib: higher = more cell gain than with non-targeting siRNA; lactate per cell with vemurafenib: higher = more lactate made per cell
- Active means: 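a knock-down counts as enhancing when its fold-change classes with vehicle and with vemurafenib, taken together, show a stronger drug effect on cell gain or lactate per cell; exact class pairs not stated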
- Calls: active = enhances vemurafenib effect; inactive = no enhancement seen
The deposit covers about 18,000 reagents; shown is an unselected part. Of all reagents, 790 (4.4%) are marked active. 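Calls rest on a combination of fold-change classes in drug and vehicle arms, not all shown here.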 Reagents against one gene are numbered here. Reagent sequences are not shown.

target gene	pool no.	cell gain with vemurafenib	lactate per cell with vemurafenib	Outcome
TMPRSS12	1	0.75	1.04	inactive
NFKBIL1	1	1.02	0.8	inactive
CMYA5	1	0.82	1.23	inactive
ZNF385C	1	1.25	0.64	inactive
PIK3CD-AS1	1	0.45	1.51	inactive
B4GALT5	1	0.58	0.9	inactive
OR5V1	1	0.44	1.08	inactive
CDH11	1	0.5	1	inactive
CHRNA2	1	0.44	0.72	inactive
DEFB106A	1	0.86	1.1	inactive
SCN3A	1	0.5	0.6	inactive
PSMD2	1	-0.12	3.59	inactive
PRKCG	1	1.19	0.36	inactive
APP	1	1.19	1.22	inactive
TMC2	1	0.26	1.1	inactive
PSPH	1	0.86	0.9	inactive
TCP11L2	1	0.21	1.2	inactive
CATSPER2	1	0.97	1.04	inactive
NACA	1	0.19	1.96	inactive
SUN2	1	0.76	0.66	inactive
EMC7	1	0.72	0.68	active
CD164	1	0.62	0.18	active
PASK	1	0.46	1	inactive
FHIP2B	1	0.49	0.43	inactive
MCRS1	1	0.41	1.04	inactive
MLLT6	1	1.13	0.52	inactive
DUSP5	1	0.76	0.6	inactive
BTBD17	1	0.87	1.08	inactive
CD74	1	0.72	0.95	inactive
SLC39A7	1	0.28	0.88	inactive
TRPC6	1	0.43	0.48	inactive
TAS2R38	1	0.37	1.21	inactive
TRA2B	1	-0.01	0.77	inactive
PQBP1	1	0.57	0.66	inactive
P4HB	1	0.79	1.21	inactive
SLC12A9	1	0.68	0.99	inactive
BUD23	1	0.41	0.52	inactive
VTCN1	1	0.44	1.4	inactive
DEFA4	1	0.65	1.08	inactive
SHISA2	1	0.4	1	inactive
MSANTD1	1	0.86	1.05	inactive
JADE1	1	1.07	0.98	inactive
KMT5A	1	0.43	1.7	inactive
CAVIN3	1	1.13	0.71	inactive
CAPZA3	1	0.58	0.86	inactive
MRPL1	1	0.93	0.75	inactive
ZNF610	1	0.76	0.7	inactive
NHERF2	1	1.17	0.41	inactive
SWSAP1	1	0.77	1.75	inactive
RBMY1A1	1	0.91	1.58	inactive
STAG1	1	0.62	1.38	inactive
ENAM	1	0.9	0.61	inactive
KCNK18	1	0.68	0.18	active
CNTN2	1	0.5	1.02	inactive
AOC3	1	0.46	0.73	inactive

Next part, starting with the last 6 of the part before.
target gene	pool no.	cell gain with vemurafenib	lactate per cell with vemurafenib	Outcome
RBMY1A1	1	0.91	1.58	inactive
STAG1	1	0.62	1.38	inactive
ENAM	1	0.9	0.61	inactive
KCNK18	1	0.68	0.18	active
CNTN2	1	0.5	1.02	inactive
AOC3	1	0.46	0.73	inactive
ITPR3	1	0.93	0.24	inactive
ZNF585A	1	0.84	0.86	inactive
CALB2	1	0.34	0.57	inactive
EPHA2	1	1.3	0.92	inactive
WDR91	1	0.67	1.14	inactive
SALL2	1	0.65	0.25	inactive
B3GNT7	1	0.6	1.44	inactive
CEBPE	1	0.59	1.02	inactive
KCNK15	1	0.6	0.52	inactive
COLGALT2	1	1.06	1.15	inactive
H4C12	1	1.29	0.94	inactive
POTEA	1	1.16	0.83	inactive
CDC14A	1	0.82	0.55	inactive
RCC1	1	0.39	0.92	inactive
RCC1	2	0.77	0.77	inactive
H3-4	1	0.4	0.86	inactive
STEAP1	1	0.58	0.68	inactive
CSTF1	1	1.12	0.54	inactive
STXBP1	1	0.33	2.16	inactive
MRPL39	1	0.68	0.84	inactive
OR2M2	1	0.41	1.69	inactive
CCNH	1	0.87	0.93	inactive
ARRDC1	1	0.89	0.85	inactive
DNTTIP1	1	0.58	0.66	inactive
AURKC	1	0.51	0.8	inactive
RPL23A	1	-0.08	1.27	inactive
FOXRED2	1	0.74	0.26	inactive
BLMH	1	0.69	0.7	inactive
ERAL1	1	0.6	1.43	inactive
LATS2	1	0.53	1.29	inactive
SAGE1	1	0.36	0.64	inactive
ADAMTS10	1	0.54	1.19	inactive
KRTAP3-2	1	0.61	0.63	inactive
CPSF2	1	0.61	2.06	inactive
TTC19	1	0.48	2.04	inactive
GPR65	1	0.61	0.56	inactive
ADCY9	1	1.06	0.53	inactive
ZBTB41	1	1.03	0.74	inactive
PPFIA4	1	0.87	0.53	inactive
TRIP10	1	0.85	1.48	inactive
ABHD3	1	0.78	0.86	inactive
FCER2	1	0.76	0.77	inactive
ARL2	1	0.55	1.79	inactive
EML1	1	0.94	1.02	inactive
ERCC5	1	0.13	1	inactive
OSTN	1	0.41	0.68	inactive
ADGRF1	1	1.05	0.99	inactive
OSBP	1	0.67	0.9	inactive
OR2D3	1	1.06	0.53	inactive
RPS29	1	-0.16	0.36	inactive
OR1B1	1	0.21	0.87	inactive
MEIS1	1	0.67	0.67	inactive
